Results are given in words; binding and its absence hold for the method and conditions named. Binding seen in cells or lysates may run through a third protein. A yes stands for co-enrichment or nearness to the bait. Other partners may have been found. Where a sequence is shown, tags or fusion partners need not be part of it. Values belong to the molecule of their own block, whether it stands above or below them.
Target: T1, ZEB1-HA (mouse) (UniProt Q64318)
T1 sequence: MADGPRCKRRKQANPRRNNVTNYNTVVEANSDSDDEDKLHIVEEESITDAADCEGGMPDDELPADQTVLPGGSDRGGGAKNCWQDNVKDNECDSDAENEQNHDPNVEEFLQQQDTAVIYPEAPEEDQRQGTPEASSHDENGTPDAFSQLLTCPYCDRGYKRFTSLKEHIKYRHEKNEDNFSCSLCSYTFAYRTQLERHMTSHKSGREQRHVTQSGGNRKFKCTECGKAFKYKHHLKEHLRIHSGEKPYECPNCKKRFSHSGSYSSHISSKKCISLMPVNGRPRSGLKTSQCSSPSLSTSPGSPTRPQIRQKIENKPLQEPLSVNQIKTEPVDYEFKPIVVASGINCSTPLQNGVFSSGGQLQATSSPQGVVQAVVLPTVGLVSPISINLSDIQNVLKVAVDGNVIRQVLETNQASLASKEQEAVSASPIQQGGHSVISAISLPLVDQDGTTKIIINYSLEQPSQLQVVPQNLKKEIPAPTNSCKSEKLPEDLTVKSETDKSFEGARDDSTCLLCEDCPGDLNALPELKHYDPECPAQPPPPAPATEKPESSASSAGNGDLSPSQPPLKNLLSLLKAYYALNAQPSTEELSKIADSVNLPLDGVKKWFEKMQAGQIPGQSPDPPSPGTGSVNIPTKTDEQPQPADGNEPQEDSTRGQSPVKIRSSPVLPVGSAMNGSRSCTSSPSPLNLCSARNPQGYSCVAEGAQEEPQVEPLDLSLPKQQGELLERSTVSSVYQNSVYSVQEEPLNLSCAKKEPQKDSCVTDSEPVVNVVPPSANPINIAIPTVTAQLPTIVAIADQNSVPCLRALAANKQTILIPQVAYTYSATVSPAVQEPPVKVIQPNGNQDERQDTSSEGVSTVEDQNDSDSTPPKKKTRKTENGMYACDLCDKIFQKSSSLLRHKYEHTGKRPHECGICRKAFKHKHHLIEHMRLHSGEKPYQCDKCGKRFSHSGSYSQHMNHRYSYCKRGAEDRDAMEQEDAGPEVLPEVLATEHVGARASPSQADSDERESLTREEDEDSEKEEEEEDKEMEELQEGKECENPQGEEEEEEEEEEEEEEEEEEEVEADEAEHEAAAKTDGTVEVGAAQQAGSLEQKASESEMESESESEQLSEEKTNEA
Experiment: affinity purification with mass spectrometry; anti-HA antibody on protein-A sepharose beads; lysate of 3T3-L1 cells stably overexpressing ZEB1 (doxycycline from day -2, harvested at day 0), control vector cells alongside; IP buffer 20 mM Tris-Cl pH 7.4, 150 mM NaCl, 10% glycerol, 1% Triton X-100, 1 mM EDTA, 1 mM DTT; 4 hr at 4°C, 5 washes; SDS-PAGE, in-gel trypsin digestion, LC-MS/MS; two replicate experiments

By UniProt entry, the sequences of proteins in these tests, tags left out.
UniProt P56546: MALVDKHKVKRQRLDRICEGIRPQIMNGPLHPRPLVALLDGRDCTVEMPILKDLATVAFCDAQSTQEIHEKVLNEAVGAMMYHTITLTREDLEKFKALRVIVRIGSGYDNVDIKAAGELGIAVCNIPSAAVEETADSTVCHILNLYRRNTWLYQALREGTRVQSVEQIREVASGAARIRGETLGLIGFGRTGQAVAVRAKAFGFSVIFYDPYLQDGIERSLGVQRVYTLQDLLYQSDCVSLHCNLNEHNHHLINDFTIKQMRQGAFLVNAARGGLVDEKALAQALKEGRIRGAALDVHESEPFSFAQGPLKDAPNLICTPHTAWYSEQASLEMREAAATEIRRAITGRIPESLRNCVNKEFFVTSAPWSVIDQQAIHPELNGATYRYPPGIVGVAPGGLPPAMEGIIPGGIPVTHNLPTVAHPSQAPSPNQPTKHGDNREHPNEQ
UniProt P28033: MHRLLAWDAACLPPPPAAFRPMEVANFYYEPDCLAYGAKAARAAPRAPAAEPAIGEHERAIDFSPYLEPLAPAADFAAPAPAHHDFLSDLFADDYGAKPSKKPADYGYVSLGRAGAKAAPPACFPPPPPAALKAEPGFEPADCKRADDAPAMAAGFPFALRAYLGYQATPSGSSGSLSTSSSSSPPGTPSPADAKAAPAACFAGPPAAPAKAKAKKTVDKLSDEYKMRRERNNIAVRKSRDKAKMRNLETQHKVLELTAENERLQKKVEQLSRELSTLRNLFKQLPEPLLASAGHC
UniProt Q08775: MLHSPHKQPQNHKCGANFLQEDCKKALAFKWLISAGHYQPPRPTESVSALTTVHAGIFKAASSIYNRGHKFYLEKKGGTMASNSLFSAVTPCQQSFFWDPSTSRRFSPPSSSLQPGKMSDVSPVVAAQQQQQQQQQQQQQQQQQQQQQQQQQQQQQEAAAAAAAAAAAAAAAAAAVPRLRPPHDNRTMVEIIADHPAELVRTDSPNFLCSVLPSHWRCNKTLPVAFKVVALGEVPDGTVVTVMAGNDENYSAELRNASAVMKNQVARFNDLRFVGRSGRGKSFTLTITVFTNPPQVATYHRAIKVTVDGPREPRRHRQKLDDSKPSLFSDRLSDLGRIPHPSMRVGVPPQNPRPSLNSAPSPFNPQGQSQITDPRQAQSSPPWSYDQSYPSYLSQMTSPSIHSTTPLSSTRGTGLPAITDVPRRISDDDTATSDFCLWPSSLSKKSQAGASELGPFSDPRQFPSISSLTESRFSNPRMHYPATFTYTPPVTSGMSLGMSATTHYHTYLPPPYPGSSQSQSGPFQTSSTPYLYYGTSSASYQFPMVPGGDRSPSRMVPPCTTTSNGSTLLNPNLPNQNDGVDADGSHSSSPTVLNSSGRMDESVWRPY

Molecule: CtBP2 (from UniProt P56546 1-445)
binding: binds

B1: ATF7 (protein, UniProt Q8R0S1 1-413)
chain: MGDDRPFVCSAPGCGQRFTNEDHLAVHKHKHEMTLKFGPARTDSVIIADQTPTPTRFLKNCEEVGLFNELASSFEHEFKKASDDDEKKGAAGPLDMSLPSTPDIKIKEEEPVEVDSSPPDSPASSPCSPPLKEKEVTTKPVVISTPTPTIVRPGSLPLHLGYDPLHPTLPSPTSVITQAPPSNRQIGSPTGSLPLVMHLANGQTMPMLPGPPVQMPSVISLARPVSMVPNIPGIPGPPVNNSGSISPSGHPMPSEAKMRLKATLTHQVSSINGGCGMVVGTASTMVTARPEQNQILIQHPDAPSPAQPQVSPAQPTPSTGGRRRRTVDEDPDERRQRFLERNRAAASRCRQKRKLWVSSLEKKAEELTSQNIQLSNEVTLLRNEVAQLKQLLLAHKDCPVTALQKKTQGYLGK
binding: binds

B2: ATF2 (protein, UniProt P16951 1-487)
chain: MSDDKPFLCTAPGCGQRFTNEDHLAVHKHKHEMTLKFGPARNDSVIVADQTPTPTRFLKNCEEVGLFNELASPFENEFKKASEDDIKKMPLDLSPLATPIIRSKIEEPSVVETTHQDSPLPHPESTTSDEKEVPLAQTAQPTSAIVRPASLQVPNVLLTSSDSSVIIQQAVPSPTSSTVITQAPSSNRPIVPVPGPFPLLLHLPNGQTMPVAIPASITSSNVHVPAAVPLVRPVTMVPSVPGIPGPSSPQPVQSEAKMRLKAALTQQHPPVTNGDTVKGHGSGLVRTQSEESRPQSLQQPATSTTETPASPAHTTPQTQNTSGRRRRAANEDPDEKRRKFLERNRAAASRCRQKRKVWVQSLEKKAEDLSSLNGQLQSEVTLLRNEVAQLKQLLLAHKDCPVTAMQKKSGYHTADKDDSSEDLSVPSSPHTEAIQHSSVSTSNGVSSTSKAEAVATSVLTQMADQSTEPALSQIVMAPPSQAQPSGS
binding: binds

Second part, the molecule after the results:

binding: binds
Molecule: CCAAT/enhancer binding protein beta (C/EBPβ) (from UniProt P28033 1-296)

binding: binds
Molecule: RUNX2 (from UniProt Q08775 1-607)

From paper PMC4359378
